Structures can show the parent of a compound that is named as a salt.
Experiment: Safety index (ED50 of mydriatic activity / ID50 of Anti-SGM)
Design: species or system male Wistar strain rats
Settings: rat, in vivo, po; ED50 of mydriatic activity divided by ID50 of Anti-SGM
Method: This effect was examined using male Wistar strain rats, weighing about 250 g, with chronically implanted strain gauge force transducer as mentioned in the experiment (1). The rats were usually allowed to stand for 3-5 days for recovery from the surgery and fasted for 18 hours before experiment. Then, spontaneous gastric motility in conscious rats were recorded and the sum of amplitude of each contraction was calculated every 15 minutes. Inhibitory effect of test compound by oral administration was expressed as a percent inhibition of initial spontaneous motility. ID50 value, i.e., the dose required for 50% inhibition of spontaneous motility, was determined from regression line calculated by the maximum percent inhibition at each dose level.
*This index is determined by dividing ED50 of mydriatic activity by […]

Structure (SMILES): CN1[C@@H]2CC[C@H]1C[C@@H](OC(=O)C(CO)c1ccccc1)C2 (stereo partly shown) [Atropine sulfate, atropine sulfate, reference compound]
- selectivity ratio: 2

From patent US4447439A, “2-Cyclic amino-2-(1,2-benzisoxazol-3-yl)acetic acid ester derivatives, process for the preparation thereof and composition containing the same” (priority 1981, dated 1984)
